Data on one sequence can be found in PMC12167490.

The series deals with SIRT6-ΔC (SIRT6-Δ298-355). As to the kind of experiment: EMSA. The settings on record: 50 nM DNA, binds, but larger shift not observed up to 7 uM protein, EMSA: 50 mM Tris pH 7.5, 20 mM NaCl, 2 mM MgCl2, 2 mM DTT, RT 15 min, 10 ul, 5% TBE gel, recombinant protein, protein details: tag cleaved with TEV, label: none (ethidium bromide stain).

The exact form of at least one protein or probe is not confirmed. A weaker result is weaker than the reference pair of the same experiment.

Regarding “CTACTGGTACGGCAGACAGGATGTATATATCTGACACGTGCCTGGAGACTAGGGAGTAATCCCCTTGGCGGTTAAAACGCGGGGGACAGCGCGTACGTGCGTTTAAGCGGTGCTAGAGCTGTCTACGACCAATTGAGCGGCCTCGGCACCGGGATTCTCCAGTATTCGAGGCCGTTC (double strand) [ds601 DNA (177 bp)]”, the binding result is recorded as “binds more weakly”.
